Laboratory results published in the supplement of paper PMC11451515.

Assays:
NOMO1 [1] = experiment: cell viability relative to DMSO control; higher = less cytotoxic; conditions: 48 h
How it was run: (§1)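 Viability is a per-plate percentage relative to DMSO wells, with cell-free wells as background. CellTiter-Glo One luminescence was read after 48 h at 37°C on 1536-well plates (5 μl) of NOMO1 or SEM (500 cells/well) or P12-Ichikawa (1000 cells/well) leukemia cells. The cells had been adapted for at least four passages in each medium and pin-dosed with library compounds in DMSO from 47 μM to 0.79 nM in 11 threefold steps.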

SEM cells [2] = experiment: as above; conditions: 48 h
How it was run: as §1

P12-Ichikawa [3] = experiment: as above; conditions: RPMI 5 mM glucose + 10% dialyzed FBS, 48 h
How it was run: as §1

NOMO1 [4] = experiment: AUC of viability dose-response curve (% viability x log10 dose units); higher = less sensitive; conditions: 48 h
How it was run: (§2)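 Over 48 h at 37°C, leukemia cells in 1536-well plates (500 or 1000 cells/well), adapted to each medium, received library compounds in DMSO at 11 threefold doses from 47 μM to 0.79 nM. CellTiter-Glo One luminescence, normalised per plate to DMSO and cell-free wells, was fitted by a four-parameter log-logistic function of log10 dose. The area under the curve was then integrated by trapezoidal rule, after scaling curves above full viability and removing those that failed quality control.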

SEM cells [5] = experiment: as above; conditions: 48 h
How it was run: as §2

P12-Ichikawa [6] = experiment: as above; conditions: 48 h
How it was run: as §2

O[C@@H]1C\C(=C/C(O)C1O)C(O)=O (stereo partly specified)
cell viability [%]
Conditions	HPLM + 10% dialyzed FBS	RPMI 5 mM glucose + 10% FBS	RPMI 5 mM glucose + 10% dialyzed FBS
NOMO1 [1], 0.000781 µM	128	115	130
NOMO1 [1], 0.00234 µM	123	116	121
NOMO1 [1], 0.00702 µM	116	118	123
NOMO1 [1], 0.0211 µM	133	135	121
NOMO1 [1], 0.0632 µM	135	132	132
NOMO1 [1], 0.19 µM	120	115	124
NOMO1 [1], 0.569 µM	140	121	128
NOMO1 [1], 1.71 µM	117	120	96.7
NOMO1 [1], 5.12 µM	114	111	126
NOMO1 [1], 15.4 µM	100	115	118
NOMO1 [1], 46.1 µM	124	113	98.9
SEM cells [2], 0.000781 µM	104	110	109
SEM cells [2], 0.00234 µM	105	108	119
SEM cells [2], 0.00702 µM	116	125	114
SEM cells [2], 0.0211 µM	116	125	106
SEM cells [2], 0.0632 µM	87.9	107	92.6
SEM cells [2], 0.19 µM	132	117	107
SEM cells [2], 0.569 µM	110	106	116
SEM cells [2], 1.71 µM	132	115	113
SEM cells [2], 5.12 µM	116	115	101
SEM cells [2], 15.4 µM	106	114	100
SEM cells [2], 46.1 µM	98	112	117

Conditions	AUC of viability dose-response curve	cell viability [%]
NOMO1 [4], HPLM + 10% dialyzed FBS	460	–
NOMO1 [4], RPMI 5 mM glucose + 10% FBS	464	–
NOMO1 [4], RPMI 5 mM glucose + 10% dialyzed FBS	455	–
P12-Ichikawa [3], 0.000781 µM	–	120
P12-Ichikawa [3], 0.00234 µM	–	120
P12-Ichikawa [3], 0.00702 µM	–	129
P12-Ichikawa [3], 0.0211 µM	–	134
P12-Ichikawa [3], 0.0632 µM	–	124
P12-Ichikawa [3], 0.19 µM	–	119
P12-Ichikawa [3], 0.569 µM	–	122
P12-Ichikawa [3], 1.71 µM	–	115
P12-Ichikawa [3], 5.12 µM	–	119
P12-Ichikawa [3], 15.4 µM	–	120
P12-Ichikawa [3], 46.1 µM	–	117
P12-Ichikawa [6], HPLM + 10% dialyzed FBS	466	–
P12-Ichikawa [6], RPMI 5 mM glucose + 10% FBS	462	–
P12-Ichikawa [6], RPMI 5 mM glucose + 10% dialyzed FBS	461	–
SEM cells [5], HPLM + 10% dialyzed FBS	471	–
SEM cells [5], RPMI 5 mM glucose + 10% FBS	474	–
SEM cells [5], RPMI 5 mM glucose + 10% dialyzed FBS	470	–
